Assay results published in the supplement of paper PMC7858590.
Where “and” joins values, the source holds several entries; their conditions need not be identical. Identical values can stand only once. ± gives the standard deviation of the averaged measurements. The full ranking holds about 3,800 compounds; the median of “cell shape (eccentricity) Z-score vs DMSO control” is about 1.1, and the lowest 2% start at about -4.7. The list shows a part of the results.

Test system: human monocyte-derived macrophages (M0)
Test: cell shape (eccentricity) Z-score vs DMSO control; higher = more elongated, M2-like morphology
Conditions: 20 µM; 24 h; macrophage state: M0 (M-CSF)

SMILES	cell shape (Z-score)
Cc1onc(-c2ccccc2)c1C(=O)N[C@@H]1C(=O)N2[C@@H](C(=O)O)C(C)(C)S[C@@H]12	1.05
C=C1[C@@H]2CC[C@H]3[C@]4(C)C[C@H](O)C[C@@H](C(=O)OC)[C@H]4CC[C@]3(C2)[C@H]1O	0.438
O=C1c2ccccc2S(=O)(=O)N1CCCCN1CCN(c2ncccn2)CC1	1.29
O=c1c2ccccc2nc2n1CCC2O (stereo unspecified)	0.2
CC1(C)CC[C@]2(C(=O)O[C@@H]3O[C@H](CO[C@@H]4O[C@H](CO)[C@@H](O)[C@H](O)[C@H]4O)[C@@H](O)[C@H](O[C@@H]4O[C@H](CO)[C@@H](O)[C@H](O)[C@H]4O)[C@H]3O)CC[C@]3(C)C(=CCC4[C@@]5(C)CC[C@H](O)[C@@](C)(C(=O)O)C5CC[C@]43C)C2C1 (stereo partly specified)	1.07
CN(C)CCc1c[nH]c2ccc(Cn3cncn3)cc12	-1.24
COc1ccc(NS(=O)(=O)c2ccc(N)cc2)nn1	2.12
COc1ccc([C@@H]2CC(=O)c3c(O)cc(O[C@@H]4O[C@H](CO[C@H]5O[C@@H](C)[C@H](O)[C@@H](O)[C@H]5O)[C@@H](O)[C@H](O)[C@H]4O)cc3O2)cc1O	3.07
O=c1c(-c2ccc(O)cc2)coc2cc(O[C@@H]3O[C@H](CO)[C@@H](O)[C@H](O)[C@H]3O)cc(O)c12	3.66
O=C(Nc1ccc([N+](=O)[O-])cc1O)Nc1ccccc1Br	-4.95 ± 7.5
CN(C(=O)COC(=O)/C=C/c1cccc([N+](=O)[O-])c1)C1CCS(=O)(=O)C1 (stereo unspecified)	-1.2
C/C(=C\C=C\C(C)C)CCC/C(C)=C/COc1c(O)cc2c(c1O)CNC2=O	-0.193
CCN(CC)CCOC(=O)C1(C2CCCCC2)CCCCC1	1.54
C=C(C(=O)O)C1C(OC(=O)/C(=C/CO)CO)CC(C)(O)C2CC(OC(C)=O)C(C)=CC12 (stereo unspecified)	0.166
OC1(c2ccc(Cl)c(C(F)(F)F)c2)CCN(CCCC(c2ccc(F)cc2)c2ccc(F)cc2)CC1	-6.96
C[C@]12C=CC(=O)C=C1CCC1C2[C@@H](O)C[C@@]2(C)C1CC[C@]2(O)C(=O)COC(=O)CCC(=O)O (stereo partly specified)	-4.31
Cc1ncc(CSSCc2cnc(C)c(O)c2CO)c(CO)c1O	1.85
C=C(CO)[C@]1(O)C[C@@]2(C)C(=CC1=O)C=C[C@@H](O)[C@@H]2C	0.618
Nc1ccc(S(=O)(=O)Nc2ccnn2-c2ccccc2)cc1	1.56
COc1cc(-c2coc3cc(OCc4ccccc4)c(OC)c(O)c3c2=O)cc(OCc2ccccc2)c1OC	2.54
Cn1[nH]c(=O)c(=O)[nH]c1=S	0.81
O=S(=O)(NCCCCCCc1ccccc1)c1cccc2c(Cl)cccc12	2.3
COc1cc(-c2oc3cc(O)cc(O)c3c(=O)c2OC2OC(CO[C@@H]3O[C@@H](C)[C@H](O)[C@@H](O)[C@H]3O)C(O)C(O)C2O)ccc1O (stereo partly specified)	-2.62

SMILES	cell shape (Z-score)
CN(C)CCCN1c2ccccc2Sc2ccc(C(F)(F)F)cc21	-0.684
O=C(/C=C/c1ccc(O)cc1)NCC(O)c1ccc(O)cc1 (stereo unspecified)	0.0999
COc1ccc([C@@]2(O)c3c(ccc(CC=C(C)C)c3O)NC(=O)[C@@H]2OC)cc1	0.446
Cc1cc(=O)oc2cc(O)ccc12	1.67
C=CC1=C(C(=O)O)N2C(=O)[C@@H](NC(=O)/C(=N/O)c3csc(N)n3)[C@H]2SC1	1.29
CCn1c(=O)n(C2=C(CO)CN(CC3CCCCCCC3)CC2)c2ccccc21	0.146
c1ccc(CNc2ncnc3nc[nH]c23)cc1	1.75
C/C=C(/C)C(=O)OC1C(OC(C)=O)c2c(ccc3ccc(=O)oc23)OC1(C)C (stereo unspecified)	1.85
CC(C)(C)C(=O)OCOP(=O)(COCCn1cnc2c(N)ncnc21)OCOC(=O)C(C)(C)C	-2.38
CCCCC[C@@H](O)CC(=O)CCc1ccc(O)c(OC)c1	-1.32
C[C@]12CC[C@H](O)CC1=CC[C@@H]1[C@@H]2CC[C@]2(C)C(c3cccnc3)=CC[C@@H]12	-0.579 ± 1.3
CCCNC(C)C(=O)Nc1ccccc1C (stereo unspecified)	1.99
Oc1ccc(CCCc2ccc3c(c2)OCO3)c(O)c1	3.7
O=C1C[C@@H](c2ccc(O)c(O)c2)Oc2cc(O[C@@H]3O[C@H](CO)[C@@H](O)[C@H](O)[C@H]3O)cc(O)c21	0.661 ± 1.8
C/C(=C\CC[C@@H](C)[C@H]1CC(O)[C@@]2(C)C3CC[C@H]4C(C)(C)[C@@H](O[C@@H]5OC(CO)C(O)C(O)C5OC5OC(CO)C(O)C(O)C5O)CC[C@@]45C[C@@]35CC(O)[C@]12C)C(=O)O (stereo partly specified)	-1.27
CN[C@H]1CC[C@@H](c2ccc(Cl)c(Cl)c2)c2ccccc21	-5.32
CC1(C)C(=O)C=C[C@@]2(C)C1C=C[C@]1(C)C2CC[C@@]2(C)[C@H](c3ccoc3)OC(=O)[C@H]3O[C@]321 (stereo partly specified)	7.92
C=CCc1ccc(O)c(OC)c1	1.31
Cc1ccc(C(=CCN2CCCC2)c2ccccn2)cc1	0.883
O=C(O)c1cc(=O)c2ccccc2o1	-0.732
CC(=O)OC/C(=C\COc1cc(=O)oc2cccc(C)c12)CCC=C(C)C	1.97
CC1C(=O)C23CC(O)C4C(C)(C(=O)OC5OC(CO)C(O)C(O)C5O)CCCC4(C)C2(O)CCC1C3 (stereo unspecified)	-1.63
C=Cc1cncc2c(=O)n3c(cc12)-c1[nH]c2ccccc2c1CC3	2.24

SMILES	cell shape (Z-score)
C=CC[C@@H]1/C=C(\C)C[C@H](C)C[C@H](OC)[C@H]2O[C@@](O)(C(=O)C(=O)N3CCCC[C@H]3C(=O)O[C@H](/C(C)=C/[C@@H]3CC[C@@H](O)[C@H](OC)C3)[C@H](C)[C@@H](O)CC1=O)[C@H](C)C[C@@H]2OC	1.85 and 3.1
COC(CCc1ccc(O)c(O)c1)CC(=O)CCc1ccc(O)c(O)c1 (stereo unspecified)	1.18
O=c1c2c(c1=O)N(CCP(=O)(O)O)CCCN2	1.87
C[C@H](CCC(=O)NCC(=O)O)[C@H]1CCC2C3C(C[C@H](O)[C@@]21C)[C@@]1(C)CC[C@@H](O)CC1C[C@H]3O (stereo partly specified)	1.5
CC(C)(O)C(O)COc1c2ccoc2cc2oc(=O)ccc12 (stereo unspecified)	-1.19
CN(Cc1ccccc1)C(=O)C(Cc1ccc2ccccc2c1)NC(=O)C1CCCN1C(=O)Nc1ccccc1[N+](=O)[O-] (stereo unspecified)	2.76
CC(C)(Oc1ccc(CCNC(=O)c2ccc(Cl)cc2)cc1)C(=O)O	1.54
CCOC(=O)CCNc1cc(N2CCc3ccccc3CC2)nc(-c2ccccn2)n1	3.61
O=C(/C=C/CCc1ccc2c(c1)OCO2)N1CCCCC1	-1.14
O=c1[nH]c2cc(Cl)c(Cl)c([N+](=O)[O-])c2[nH]c1=O	0.958
O=C(c1ccc(Nc2nccc(-c3cc4ccccc4s3)n2)cc1)N1CCC(N2CCCC2)CC1	-4.98
CC(C)(C)NC[C@H](O)COc1nsnc1N1CCOCC1	0.397
CC(=O)N[C@H]1C[C@@H](C(=O)Nc2cc(-c3ccc(F)cc3)ccc2N)C1	3.46
CC[C@H](NC(=O)c1c(C)c(-c2ccccc2)nc2ccccc12)c1ccccc1	3.9
COc1ccc2cc1Oc1ccc(cc1)C[C@H]1c3c(cc4c(c3Oc3cc5c(cc3OC)CCN(C)[C@@H]5C2)OCO4)CCN1C	-2.3
COc1ccccc1-c1cc(=O)c2ccccc2o1	1.19
C=CCOC(Cn1ccnc1)c1ccc(Cl)cc1Cl (stereo unspecified)	3.77
O=C(CCCc1ccc(-c2ccccc2F)cc1)Nc1ccc(O)cc1	-4.74
Cc1cc(N2CCOCC2)cc2[nH]c(-c3c(NC[C@@H](O)c4cccc(Cl)c4)cc[nH]c3=O)nc12	10.2
C[C@H]1CN([C@@H](C)CO)S(=O)(=O)c2ccc(C#Cc3ccncc3)cc2O[C@@H]1CN(C)C(=O)Nc1ccc2c(c1)OCO2	-10.9
Cc1c(C(=O)NC2CCCCC2)sc2nc3ccc(N)cc3n12	1.17
CCN(CC)c1ccc(C=NNC(=O)c2ccc(O)cc2)cc1	-2.38
C[C@H]1[C@H]2OC3=C(C(=O)OC3(C)O)C(=O)[C@]1(C)[C@H]1CCCC[C@]1(O)[C@H]2O (stereo partly specified)	1.39

SMILES	cell shape (Z-score)
COC(=O)c1cccc2oc3cc(CO)cc(O)c3c(=O)c12	-0.637 ± 0.72
FC(F)(F)c1ccccc1-n1ccnc1	2.11
CC1OC(=O)CC2C(C(=O)O)=CC3CC(C)(C)CC312 (stereo unspecified)	-3.09 ± 0.58
CNC[C@@H]1Oc2ccc(NS(C)(=O)=O)cc2CC(=O)N([C@H](C)CO)C[C@@H]1C	2.39
O=c1[nH]c2cc(Cl)ccc2c(O)c1-c1cccc(Oc2ccccc2)c1	-0.358
CC1CCc2cc(F)cc3c(=O)c(C(=O)O)cn1c23 (stereo unspecified)	1.58
Nc1cc2ncnc(Nc3cccc(Br)c3)c2cc1N	-3.01
O=C(OCC1OC(Oc2ccc(O)cc2COC(=O)C2(O)C(O)CCC(=O)C2O)C(O)C(O)C1O)c1ccccc1 (stereo unspecified)	-1.23
CC(C)(CO)Cc1cc(C(C)(C)C)c(O)c(C(C)(C)C)c1	3.65
Fc1ccc(-c2nc3n(c2-c2ccncc2)CCS3)cc1	3.5
C=C(C)C(=O)O[C@H]1CC(=C)C2C[C@H](O)[C@](O)(CO)C2[C@H]2OC(=O)C(=C)[C@H]12 (stereo partly specified)	-0.704
CCCCC1=NC2(CCCC2)C(=O)N1Cc1ccc(-c2ccccc2-c2nnn[nH]2)cc1	0.959
Cn1c(=O)n(-c2ccc(C(C)(C)C#N)cc2)c2c3cc(-c4cnc5ccccc5c4)ccc3ncc21	-0.629
CC(NCC(O)CP(=O)(O)CC1CCCCC1)c1ccc(Cl)c(Cl)c1 (stereo unspecified)	0.932
CC(C)=CCC/C(C)=C/COc1ccc2ccc(=O)oc2c1	-1.73
CCC(C)C(=O)c1c(O)cc2c(c1O)CC(CC=C(C)C)C(C)(C)O2 (stereo unspecified)	-3.7
O=c1ccc2ccc(O)c(O)c2o1	-1.68
Cc1ccc(C(C)C)cc2c(C)ccc1-2	1.03
COC1=C(OC)C(=O)C(CCCCCCCCCCO)=C(C)C1=O	0.991
C=C(CC)C(=O)c1ccc(OCC(=O)O)c(Cl)c1Cl	3.27
C=C1C(=O)OC2CC3(C)CCC=C(CO)C3CC12 (stereo unspecified)	-3.71
CCS(=O)(=O)N1CCC[C@@H]2CN3CCc4cc(OC)ccc4[C@@H]3C[C@@H]21	1.75
